Experimental data taken from the supplement of paper PMC10849652.
Some of the results follow.

Sequences of proteins named here, by UniProt entry; tags and fusion partners are left off. A change or cut given only in a name is not applied to a line headed by its entry.
UniProt Q9UK10: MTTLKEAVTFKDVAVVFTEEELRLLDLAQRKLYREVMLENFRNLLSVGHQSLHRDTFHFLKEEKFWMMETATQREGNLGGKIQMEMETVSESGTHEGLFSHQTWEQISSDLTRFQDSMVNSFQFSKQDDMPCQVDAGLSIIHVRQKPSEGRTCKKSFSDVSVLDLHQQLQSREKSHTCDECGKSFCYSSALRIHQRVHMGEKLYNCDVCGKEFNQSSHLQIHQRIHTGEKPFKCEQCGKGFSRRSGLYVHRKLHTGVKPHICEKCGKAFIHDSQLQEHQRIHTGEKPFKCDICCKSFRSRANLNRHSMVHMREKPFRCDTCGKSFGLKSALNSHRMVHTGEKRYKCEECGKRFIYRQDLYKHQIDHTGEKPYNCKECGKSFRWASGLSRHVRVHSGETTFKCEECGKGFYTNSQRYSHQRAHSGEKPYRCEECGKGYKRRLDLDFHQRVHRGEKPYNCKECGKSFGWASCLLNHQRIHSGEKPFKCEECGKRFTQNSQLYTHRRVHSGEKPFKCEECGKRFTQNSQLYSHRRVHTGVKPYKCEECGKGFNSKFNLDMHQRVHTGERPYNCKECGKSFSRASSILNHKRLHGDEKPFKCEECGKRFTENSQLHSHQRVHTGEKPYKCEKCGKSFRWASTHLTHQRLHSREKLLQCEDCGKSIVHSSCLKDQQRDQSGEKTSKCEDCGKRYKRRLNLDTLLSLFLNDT
UniProt O43149: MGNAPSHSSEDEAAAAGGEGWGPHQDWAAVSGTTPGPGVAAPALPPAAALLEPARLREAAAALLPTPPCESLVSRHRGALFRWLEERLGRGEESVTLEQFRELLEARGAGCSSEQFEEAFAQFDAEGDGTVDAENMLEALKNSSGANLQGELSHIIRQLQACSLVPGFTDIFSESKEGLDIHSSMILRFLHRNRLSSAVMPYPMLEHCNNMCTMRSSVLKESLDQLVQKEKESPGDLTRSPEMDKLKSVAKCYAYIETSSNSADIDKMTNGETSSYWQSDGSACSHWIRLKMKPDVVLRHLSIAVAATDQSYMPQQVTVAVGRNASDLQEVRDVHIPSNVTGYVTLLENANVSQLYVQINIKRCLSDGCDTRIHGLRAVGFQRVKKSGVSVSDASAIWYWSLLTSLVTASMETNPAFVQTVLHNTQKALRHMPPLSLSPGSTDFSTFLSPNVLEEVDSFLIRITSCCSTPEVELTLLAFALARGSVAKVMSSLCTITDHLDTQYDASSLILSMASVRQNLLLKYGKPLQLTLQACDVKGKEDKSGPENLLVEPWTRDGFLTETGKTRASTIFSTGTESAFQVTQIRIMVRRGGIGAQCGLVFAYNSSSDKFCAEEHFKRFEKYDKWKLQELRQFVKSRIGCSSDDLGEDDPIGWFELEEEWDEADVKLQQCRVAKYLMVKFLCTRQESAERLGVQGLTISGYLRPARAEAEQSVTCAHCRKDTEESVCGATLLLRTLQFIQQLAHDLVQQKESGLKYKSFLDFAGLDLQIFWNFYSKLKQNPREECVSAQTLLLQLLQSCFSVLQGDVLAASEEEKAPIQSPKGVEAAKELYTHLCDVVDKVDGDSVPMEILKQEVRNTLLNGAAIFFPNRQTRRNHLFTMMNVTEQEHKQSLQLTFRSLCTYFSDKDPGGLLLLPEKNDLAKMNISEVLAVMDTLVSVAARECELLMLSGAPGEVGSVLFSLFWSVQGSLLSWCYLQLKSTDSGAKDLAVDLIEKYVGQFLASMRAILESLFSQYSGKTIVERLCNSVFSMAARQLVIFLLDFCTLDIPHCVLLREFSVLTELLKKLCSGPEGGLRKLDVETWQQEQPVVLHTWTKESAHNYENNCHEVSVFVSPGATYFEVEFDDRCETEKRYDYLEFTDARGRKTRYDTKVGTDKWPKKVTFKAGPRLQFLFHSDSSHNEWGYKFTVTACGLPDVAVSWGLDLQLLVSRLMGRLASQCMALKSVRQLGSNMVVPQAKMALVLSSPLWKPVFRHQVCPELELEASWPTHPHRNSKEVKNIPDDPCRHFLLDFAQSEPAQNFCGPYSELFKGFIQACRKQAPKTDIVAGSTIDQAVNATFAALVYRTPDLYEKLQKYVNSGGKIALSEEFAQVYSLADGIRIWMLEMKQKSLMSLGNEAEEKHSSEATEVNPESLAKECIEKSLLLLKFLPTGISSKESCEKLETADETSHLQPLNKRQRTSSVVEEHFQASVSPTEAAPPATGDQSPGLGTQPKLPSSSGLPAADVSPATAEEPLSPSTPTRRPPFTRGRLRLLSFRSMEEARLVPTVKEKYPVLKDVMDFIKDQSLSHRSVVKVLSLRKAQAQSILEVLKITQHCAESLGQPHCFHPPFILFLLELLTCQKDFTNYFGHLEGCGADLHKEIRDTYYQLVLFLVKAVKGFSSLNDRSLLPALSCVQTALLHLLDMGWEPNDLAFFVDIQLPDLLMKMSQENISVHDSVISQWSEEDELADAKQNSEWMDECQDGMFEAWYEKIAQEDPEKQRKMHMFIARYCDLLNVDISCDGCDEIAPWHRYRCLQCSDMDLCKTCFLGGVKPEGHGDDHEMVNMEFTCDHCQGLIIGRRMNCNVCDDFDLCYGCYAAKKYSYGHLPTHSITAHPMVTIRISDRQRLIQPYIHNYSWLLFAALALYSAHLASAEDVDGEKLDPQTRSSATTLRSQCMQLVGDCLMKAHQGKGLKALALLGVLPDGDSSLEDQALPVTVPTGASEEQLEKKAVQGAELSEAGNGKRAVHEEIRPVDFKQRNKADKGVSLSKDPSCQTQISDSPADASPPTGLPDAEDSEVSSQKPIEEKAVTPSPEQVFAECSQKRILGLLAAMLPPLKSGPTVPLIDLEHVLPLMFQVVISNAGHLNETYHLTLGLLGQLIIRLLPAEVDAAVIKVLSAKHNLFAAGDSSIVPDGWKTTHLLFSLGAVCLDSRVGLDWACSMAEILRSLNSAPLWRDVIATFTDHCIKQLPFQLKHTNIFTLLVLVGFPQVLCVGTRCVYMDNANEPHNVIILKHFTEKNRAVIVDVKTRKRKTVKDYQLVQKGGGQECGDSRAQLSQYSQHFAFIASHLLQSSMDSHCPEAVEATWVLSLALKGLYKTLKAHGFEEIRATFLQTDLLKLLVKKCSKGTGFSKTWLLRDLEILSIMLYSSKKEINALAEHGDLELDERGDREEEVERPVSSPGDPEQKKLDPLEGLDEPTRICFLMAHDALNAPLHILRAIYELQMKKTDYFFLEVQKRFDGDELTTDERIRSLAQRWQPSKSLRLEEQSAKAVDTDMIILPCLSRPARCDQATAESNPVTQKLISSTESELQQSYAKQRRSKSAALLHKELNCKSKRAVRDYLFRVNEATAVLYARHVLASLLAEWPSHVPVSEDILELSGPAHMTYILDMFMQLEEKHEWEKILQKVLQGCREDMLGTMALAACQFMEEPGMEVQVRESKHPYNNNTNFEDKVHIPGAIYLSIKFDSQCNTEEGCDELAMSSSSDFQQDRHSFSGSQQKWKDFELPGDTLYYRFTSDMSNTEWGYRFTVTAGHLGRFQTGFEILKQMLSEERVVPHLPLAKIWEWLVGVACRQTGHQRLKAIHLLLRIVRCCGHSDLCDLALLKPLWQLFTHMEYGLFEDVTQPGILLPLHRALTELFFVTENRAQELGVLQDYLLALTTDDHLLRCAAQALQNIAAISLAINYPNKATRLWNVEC
UniProt Q499Z4: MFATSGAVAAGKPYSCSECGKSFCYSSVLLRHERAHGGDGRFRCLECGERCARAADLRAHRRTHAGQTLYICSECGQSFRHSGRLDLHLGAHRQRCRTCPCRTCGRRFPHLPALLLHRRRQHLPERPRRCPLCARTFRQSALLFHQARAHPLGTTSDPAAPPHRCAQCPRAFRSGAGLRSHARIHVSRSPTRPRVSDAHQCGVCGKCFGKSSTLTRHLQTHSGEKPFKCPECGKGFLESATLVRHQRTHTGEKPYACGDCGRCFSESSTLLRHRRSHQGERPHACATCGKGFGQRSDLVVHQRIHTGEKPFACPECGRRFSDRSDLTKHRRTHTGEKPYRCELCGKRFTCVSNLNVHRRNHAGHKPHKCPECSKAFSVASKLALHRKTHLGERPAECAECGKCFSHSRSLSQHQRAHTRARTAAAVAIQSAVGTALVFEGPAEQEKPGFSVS
UniProt Q15649: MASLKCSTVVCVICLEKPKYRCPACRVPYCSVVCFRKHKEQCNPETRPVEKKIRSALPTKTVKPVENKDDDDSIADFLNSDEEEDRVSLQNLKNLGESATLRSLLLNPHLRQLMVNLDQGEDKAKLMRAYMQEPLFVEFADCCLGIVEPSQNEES
UniProt Q969S3: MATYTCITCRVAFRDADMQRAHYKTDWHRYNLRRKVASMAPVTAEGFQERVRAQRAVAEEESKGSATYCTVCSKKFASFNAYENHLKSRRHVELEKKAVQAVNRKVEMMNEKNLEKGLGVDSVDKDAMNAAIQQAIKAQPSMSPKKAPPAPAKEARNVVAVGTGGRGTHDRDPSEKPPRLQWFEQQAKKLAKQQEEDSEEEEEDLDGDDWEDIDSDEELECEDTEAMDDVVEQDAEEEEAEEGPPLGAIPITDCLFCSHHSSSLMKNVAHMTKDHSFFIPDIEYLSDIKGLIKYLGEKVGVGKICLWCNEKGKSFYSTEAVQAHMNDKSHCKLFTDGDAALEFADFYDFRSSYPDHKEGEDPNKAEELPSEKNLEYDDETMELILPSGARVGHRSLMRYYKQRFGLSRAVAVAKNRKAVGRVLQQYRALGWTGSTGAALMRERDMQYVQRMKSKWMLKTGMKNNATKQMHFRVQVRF
UniProt A6NFI3: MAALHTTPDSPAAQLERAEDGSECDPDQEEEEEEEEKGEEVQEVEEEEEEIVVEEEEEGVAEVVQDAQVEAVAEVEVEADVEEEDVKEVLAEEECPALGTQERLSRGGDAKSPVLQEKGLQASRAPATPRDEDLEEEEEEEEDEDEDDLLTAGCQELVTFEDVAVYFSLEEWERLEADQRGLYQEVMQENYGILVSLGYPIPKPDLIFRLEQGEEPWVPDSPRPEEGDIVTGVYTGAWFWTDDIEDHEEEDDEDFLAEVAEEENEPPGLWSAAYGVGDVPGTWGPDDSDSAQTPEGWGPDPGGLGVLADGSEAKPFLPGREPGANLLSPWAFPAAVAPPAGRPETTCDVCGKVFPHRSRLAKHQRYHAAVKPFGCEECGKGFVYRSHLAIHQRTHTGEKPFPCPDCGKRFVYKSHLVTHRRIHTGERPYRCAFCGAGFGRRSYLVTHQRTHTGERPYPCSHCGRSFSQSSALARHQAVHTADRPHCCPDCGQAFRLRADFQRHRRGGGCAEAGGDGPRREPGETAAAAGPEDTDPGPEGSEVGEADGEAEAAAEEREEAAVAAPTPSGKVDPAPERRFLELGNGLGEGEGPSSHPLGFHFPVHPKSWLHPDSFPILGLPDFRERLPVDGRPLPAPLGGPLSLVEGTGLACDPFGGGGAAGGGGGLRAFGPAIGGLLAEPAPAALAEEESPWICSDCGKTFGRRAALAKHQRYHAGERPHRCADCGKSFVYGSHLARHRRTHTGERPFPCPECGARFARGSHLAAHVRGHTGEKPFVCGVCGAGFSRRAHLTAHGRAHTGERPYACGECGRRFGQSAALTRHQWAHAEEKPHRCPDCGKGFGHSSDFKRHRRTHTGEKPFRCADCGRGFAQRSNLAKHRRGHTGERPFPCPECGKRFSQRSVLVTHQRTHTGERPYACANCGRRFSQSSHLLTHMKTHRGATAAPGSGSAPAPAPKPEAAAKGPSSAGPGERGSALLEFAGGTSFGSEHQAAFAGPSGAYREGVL
UniProt O43670: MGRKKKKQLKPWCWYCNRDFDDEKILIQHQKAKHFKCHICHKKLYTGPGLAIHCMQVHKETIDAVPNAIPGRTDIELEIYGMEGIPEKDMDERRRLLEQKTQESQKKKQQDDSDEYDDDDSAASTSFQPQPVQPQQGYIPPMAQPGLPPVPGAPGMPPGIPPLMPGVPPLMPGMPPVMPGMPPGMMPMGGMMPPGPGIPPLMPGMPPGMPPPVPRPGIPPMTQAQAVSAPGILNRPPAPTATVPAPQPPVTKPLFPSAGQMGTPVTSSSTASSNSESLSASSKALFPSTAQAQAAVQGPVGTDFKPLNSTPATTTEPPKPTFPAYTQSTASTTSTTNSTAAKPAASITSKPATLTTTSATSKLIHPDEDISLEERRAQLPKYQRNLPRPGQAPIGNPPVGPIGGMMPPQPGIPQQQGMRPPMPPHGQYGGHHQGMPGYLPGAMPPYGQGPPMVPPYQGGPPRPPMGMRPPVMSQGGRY
UniProt O95218: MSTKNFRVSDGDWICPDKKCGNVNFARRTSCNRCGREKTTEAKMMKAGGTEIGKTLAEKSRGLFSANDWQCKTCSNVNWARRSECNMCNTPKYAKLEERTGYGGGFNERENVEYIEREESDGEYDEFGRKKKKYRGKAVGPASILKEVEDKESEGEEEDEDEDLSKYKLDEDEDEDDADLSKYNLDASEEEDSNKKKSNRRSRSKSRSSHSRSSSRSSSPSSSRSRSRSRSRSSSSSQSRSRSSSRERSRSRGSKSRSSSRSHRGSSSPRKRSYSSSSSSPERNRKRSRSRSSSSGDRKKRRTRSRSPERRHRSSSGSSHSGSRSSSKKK

Legend:
Assay in all cases: log2 fold change, soluble protein after heating vs DMSO (PISA); higher = thermal stabilisation; K562 lysate, 10 uM; active = over 0.2 and 3.5 SD of the protein, either way, in both replicates (recomputed)
erlotinib = compound: C#Cc1cccc(Nc2ncnc3cc(OCCOC)c(OCCOC)cc23)c1 [erlotinib]
Summary of the method: (§1)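 Soluble protein was defined as the supernatant remaining after 21,000xg for 90 min, following pooling of heated aliquots and adjustment to 0.5% NP-40 at 4°C. Before that, crude K562 extract at 1 mg/mL protein in PBS pH 7.4 with 1 mM MgCl2 was treated with 10 μM compound for 30 min and heated for 3 min across 48°C-58°C. Quantification used TMTpro 16plex LC-MS/MS with channel sums equalised, and values are log-two fold changes in thermal stability relative to solvent controls from duplicates.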

[1] = compound: C/C(=N\NC(=O)C1=CC(=CC=C1)S(=O)(=O)N2CCOCC2)/C3=C(C=CC(=C3)Cl)O
Summary of the method: as §1

[2] = compound: C1=CC(=CC=C1C2=NC3=C(N2)C=C(C=C3)C(=O)N)OC4=CC=C(C=C4)Cl
Summary of the method: as §1

[3] = compound: C1=CC2=C(C=CC(=C2)/C=C\3/C(=O)NC(=NCC4=CC=CS4)S3)N=C1
Summary of the method: as §1

[4] = compound: C1=CC2=NC=CN=C2C=C1/C=C/3\C(=O)NC(=O)S3
Summary of the method: as §1

[5] = compound: C1=CC=C(C=C1)C2=NC(=C(N2)C3=CC=NC=C3)C4=CC(=C(C=C4)Cl)O
Summary of the method: as §1

[6] = compound: C1=CC=C2C(=C1)C3=NNC4=CC=CC(=C43)C2=O
Summary of the method: as §1

[7] = compound: C1CCN(C1)C(=O)NC2=CC=CC(=C2)NC3=NC=C(C(=N3)NCCC4=CN=CN4)Br
Summary of the method: as §1

[8] = compound: C1CN(CCC1(CC2=CC=C(C=C2)Cl)N)C3=NC=NC4=C3C=CN4
Summary of the method: as §1

IRAK-1-4 Inhibitor I = compound: C1COCCN1CCN2C3=CC=CC=C3N=C2NC(=O)C4=CC(=CC=C4)[N+](=O)[O-] [IRAK-1-4 Inhibitor I]
Summary of the method: as §1

Row | Target | log2 fold change (erlotinib) | log2 fold change [1] | log2 fold change [2] | log2 fold change [3] | log2 fold change [4] | log2 fold change [5] | log2 fold change [6] | log2 fold change [7] | log2 fold change [8] | log2 fold change (IRAK-1-4 Inhibitor I)
1 | ZNF225 (UniProt Q9UK10) | inactive: 0.157 | inactive: -0.315 | inactive: -0.047 | inactive: 0.078 | inactive: -0.054 | inactive: 0.09 | inactive: -0.14 | inactive: -0.092 | inactive: 0.186 | inactive: 0.127
2 | ZZEF1 (UniProt O43149) | inactive: 0.008 | inactive: -0.019 | inactive: -0.012 | inactive: 0.019 | inactive: -0.012 | inactive: -0.009 | inactive: -0.017 | inactive: -0.011 | inactive: -0.009 | inactive: 0.017
3 | ZNF24 (UniProt P17028) | inactive: 0.054 | inactive: -0.088 | inactive: -0.021 | inactive: -0.024 | inactive: -0.092 | inactive: -0.007 | inactive: 0.061 | inactive: -0.018 | inactive: 0.003 | inactive: 0.071
4 | ZMYM2 (UniProt Q9UBW7) | inactive: 0.036 | inactive: -0.049 | inactive: 0.038 | inactive: 0.073 | inactive: -0.022 | inactive: 0.053 | inactive: -0.05 | inactive: -0.209 | inactive: 0.116 | inactive: 0.07
5 | ZNF22 (UniProt P17026) | inactive: 0.156 | inactive: -0.409 | inactive: -0.022 | inactive: -0.084 | inactive: -0.153 | inactive: 0.013 | inactive: 0.238 | inactive: 0.098 | inactive: -0.082 | inactive: 0.059
6 | ZNF672 (UniProt Q499Z4) | inactive: -0.086 | inactive: 0 | inactive: -0.054 | inactive: -0.069 | inactive: -0.081 | inactive: -0.018 | inactive: 0.105 | inactive: -0.013 | inactive: 0.054 | inactive: 0.021
7 | ZNF512 (UniProt Q96ME7) | inactive: 0.014 | inactive: -0.063 | inactive: 0 | inactive: -0.137 | inactive: -0.051 | inactive: 0.057 | inactive: 0.134 | inactive: 0.032 | inactive: 0.011 | inactive: 0.014
8 | ZNHIT3 (UniProt Q15649) | inactive: -0.054 | inactive: -0.664 | inactive: 0.023 | inactive: -0.058 | inactive: -0.029 | inactive: -0.066 | inactive: 0.048 | inactive: -0.08 | inactive: 0.162 | inactive: 0.039
9 | ZNF622 (UniProt Q969S3) | inactive: -0.007 | inactive: 0.025 | inactive: -0.022 | inactive: -0.015 | inactive: -0.013 | inactive: 0.003 | inactive: -0.005 | inactive: -0.007 | inactive: -0.024 | inactive: -0.006
10 | ZNF316 (UniProt A6NFI3) | inactive: -0.007 | inactive: -0.096 | inactive: 0.049 | inactive: 0.062 | inactive: 0.052 | inactive: 0.152 | inactive: -0.146 | inactive: -0.113 | inactive: -0.075 | inactive: -0.036
11 | hCG_1984214 (UniProt I3L0E3) | inactive: 0.025 | inactive: -0.037 | inactive: 0.008 | inactive: 0.046 | inactive: 0.021 | inactive: -0.01 | inactive: -0.006 | inactive: 0.034 | inactive: -0.01 | inactive: -0.016
12 | ZNF207 isoform 2 (UniProt O43670) | inactive: 0.02 | inactive: -0.041 | inactive: 0.084 | inactive: 0.101 | inactive: -0.036 | inactive: -0.019 | inactive: -0.129 | inactive: -0.069 | inactive: 0.047 | inactive: 0.038
13 | ZSWIM8 isoform 4 (UniProt A7E2V4) | inactive: 0.025 | active: 0.508 | inactive: -0.053 | inactive: 0.02 | inactive: -0.044 | inactive: -0.021 | inactive: -0.163 | inactive: -0.239 | inactive: 0.109 | inactive: -0.122
14 | ZNFX1 (UniProt Q9P2E3) | inactive: 0.088 | inactive: -0.063 | inactive: -0.158 | inactive: 0.041 | inactive: 0.033 | inactive: -0.049 | inactive: -0.043 | inactive: 0.214 | inactive: 0.105 | inactive: 0.025
15 | ZRANB2 (UniProt O95218) | inactive: -0.017 | inactive: -0.009 | inactive: 0.024 | inactive: -0.025 | inactive: 0.005 | inactive: 0.004 | inactive: 0.023 | inactive: 0.021 | inactive: 0.011 | inactive: 0.01

A second format for part of the listing above:

| Row | Target | log2 fold change (erlotinib) | log2 fold change [1] | log2 fold change [2] | log2 fold change [3] | log2 fold change [4] | log2 fold change [5] | log2 fold change [6] | log2 fold change [7] | log2 fold change [8] | log2 fold change (IRAK-1-4 Inhibitor I) |
| --- | --- | --- | --- | --- | --- | --- | --- | --- | --- | --- | --- |
| 4 | ZMYM2 (UniProt Q9UBW7) | inactive: 0.036 | inactive: -0.049 | inactive: 0.038 | inactive: 0.073 | inactive: -0.022 | inactive: 0.053 | inactive: -0.05 | inactive: -0.209 | inactive: 0.116 | inactive: 0.07 |
| 7 | ZNF512 (UniProt Q96ME7) | inactive: 0.014 | inactive: -0.063 | inactive: 0 | inactive: -0.137 | inactive: -0.051 | inactive: 0.057 | inactive: 0.134 | inactive: 0.032 | inactive: 0.011 | inactive: 0.014 |
